Some entries share one result that the patent states for a list of compounds.
Tested on: HIV-1IIIB
Experiment: inhibition of HIV-1IIIB replication (p24 production) in MT-2 cells
Assay type: cell-based
From the text: Assessment of anti-HIV-1 infectivity. […] Reactions were terminated by addition of 1N H2SO4.

Cc1ccc(C)n1-c1ccc(C(=O)O)c(O)c1 [NB-2]
concentration inhibiting HIV-1IIIB replication: < 0.5 µg/mL

Reference: patent US7241803B2, “Compounds for inhibition of HIV infection by blocking HIV entry” (New York Blood Center, priority 2002, dated 2007)
